Data from patent US8524906B2, “Tetrahydrothiazolopyridine inhibitors of phosphatidylinositol 3-kinase” (Vertex Pharmaceuticals Incorporated, priority 2009, dated 2013).
Some entries share one result that the patent states for a list of compounds.

The chains behind the UniProt entries cited, without tags or fusion partners.
UniProt P48736, whole entry, species assumed: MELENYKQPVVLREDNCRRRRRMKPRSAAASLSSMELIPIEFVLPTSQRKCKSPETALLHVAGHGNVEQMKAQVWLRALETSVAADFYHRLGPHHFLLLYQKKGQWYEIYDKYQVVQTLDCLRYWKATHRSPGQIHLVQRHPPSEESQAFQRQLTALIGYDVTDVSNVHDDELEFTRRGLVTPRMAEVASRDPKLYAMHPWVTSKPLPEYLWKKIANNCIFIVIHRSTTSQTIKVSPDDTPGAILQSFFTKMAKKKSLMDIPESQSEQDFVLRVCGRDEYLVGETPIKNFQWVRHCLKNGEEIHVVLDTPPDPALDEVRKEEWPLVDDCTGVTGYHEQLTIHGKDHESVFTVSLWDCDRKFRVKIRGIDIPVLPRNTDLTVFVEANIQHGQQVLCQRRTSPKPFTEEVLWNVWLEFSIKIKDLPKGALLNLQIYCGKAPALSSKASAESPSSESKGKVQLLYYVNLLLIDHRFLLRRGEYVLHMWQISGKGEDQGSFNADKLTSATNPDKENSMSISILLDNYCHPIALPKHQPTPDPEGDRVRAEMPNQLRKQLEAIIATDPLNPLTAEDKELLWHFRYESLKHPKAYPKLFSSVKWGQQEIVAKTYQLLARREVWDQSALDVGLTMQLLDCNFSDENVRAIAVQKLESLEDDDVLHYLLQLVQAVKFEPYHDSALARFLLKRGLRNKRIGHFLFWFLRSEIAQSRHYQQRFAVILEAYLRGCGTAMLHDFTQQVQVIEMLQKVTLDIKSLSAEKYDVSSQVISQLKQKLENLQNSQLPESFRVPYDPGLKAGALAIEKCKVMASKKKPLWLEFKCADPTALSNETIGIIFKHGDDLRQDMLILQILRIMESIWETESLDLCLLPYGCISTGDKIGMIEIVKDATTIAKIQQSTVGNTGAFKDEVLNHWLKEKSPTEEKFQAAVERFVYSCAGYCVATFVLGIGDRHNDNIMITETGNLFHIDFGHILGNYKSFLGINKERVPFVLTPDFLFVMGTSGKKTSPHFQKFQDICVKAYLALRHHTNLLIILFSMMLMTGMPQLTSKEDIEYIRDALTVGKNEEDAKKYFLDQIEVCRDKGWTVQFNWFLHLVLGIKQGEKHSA

Target: PI3Kγ (Homo sapiens, UniProt P48736)
Experiment: PI3K Inhibition Assay (33P-ATP, PI(4,5)P2 substrate, filter plate scintillation counting)
Format: biochemical
Conditions: read-out: Ki for PI3Kγ; 3 μM ATP, 30 μM PI(4,5)P2, 2 nM final enzyme, 30 min at 25° C.; competitive tight binding Ki fit
Experimental: One test well also contained 1.5 μL of DMSO with no compound. […] Using a Titertek Multidrop, 50 μL of Reaction Mix [100 mM HEPES pH 7.5, 50 mM NaCl, 10 mM DTT, 0.2 mg/mL BSA, 60 μM phosphatidylinositol(4,5)-bisphosphate diC16 (PI(4,5)P2; Avanti Polar Lipids, Cat. No. 840046P) and PI3K isoform of interest (see Table 3 for isoform concentrations)] was added to each well. To initiate the reaction, 50 μL of ATP Mix [20 mM MgCl2, 6 μM ATP (100 μCi/μmole ^33P-ATP)] was added each well, followed by incubating the wells for 30 min. at 25° C. Final concentrations in each well were 50 mM HEPES 7.5, 10 mM MgCl2, 25 mM NaCl, 5 mM DTT, 0.1 mg/mL BSA, 30 μM PI(4,5)P2, 3 μM ATP, and the PI3K isoform of interest (see Table 3). Final compound concentrations in each well ranged from 10 μM to 1 nM.
After incubation, the reactions in each well were quenched by addition of 50 μL of stop solution [30% TCA/Water, 10 mM ATP]. […] 50 μL of scintillation fluid was added to each well and the plate read on a Perkin-Elmer TopCount™ NXT liquid scintillation counter to obtain ^33P-counts representing inhibition values.
The value for the background well was subtracted from the value obtained for each test well and the data were fit to the competitive tight binding Ki equation described by Morrison and Stone, Comments Mol. Cell Biophys.

COc1cc(N2CCc3nc(NC(=O)NCCCl)sc3C2)cnc1OC [Compound 11] gave a Ki of under 1000 nM.

COc1cncc(N2CCc3nc(NC(=O)CF)sc3C2)c1 [Compound 19] was tested, and the Ki was under 1000 nM.
